# Results from one PubChem assay

The results are deposited in PubChem (AID1159506; NCATS, 2015).

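Luminescence from an EWS-FLI1 target-promoter (NR0B1) reporter, set against a CMV-promoter reporter, two days after silencing single genes in TC32 Ewing sarcoma cells.
Each siRNA was applied at 20 nM.
A z-score of the log NR0B1-over-CMV signal, less the median of siRNAs with the same seed; more negative means a stronger specific loss of the NR0B1 reporter.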

This is part of the screen; most of the strongest results are not listed here.
Sequences are the guide (antisense) strand, without overhang.

Result for UGACUCAAGAGAAAGAUCC against DDA1 was seed-corrected z-score 1.214.
Result for UUUCGUUUCUGUGAAAGAC against RAD9B was seed-corrected z-score 0.03926.
Result for AGAUUCCACAUAGUAGUCG against KLHDC7A was seed-corrected z-score 1.336.
Result for UCGAUGUAGCUGACUAUCC against SDR42E1 was seed-corrected z-score 0.5692.
Result for UUCAUAAAAAGUGCUCAGC against SNX29 was seed-corrected z-score -1.019.
Result for UCUUCUUAAUCUCUCUCCC against PHF1 was seed-corrected z-score -0.5312.
Result for UCAGAGAACAGGUCUUCAC against GHDC was seed-corrected z-score -0.09692.
Result for UGACUGACAUCGAUCAACC against RIOK3 was seed-corrected z-score -0.1129.
Result for UUACAAUGCUGCAAGGUCC against CCR4 was seed-corrected z-score 0.01873.
Result for AGACGUAAUGCCCUUGAUC against VSTM4 was seed-corrected z-score -0.2341.
Result for AUACCCAAUAUUUCUAGUG against NDUFAF6 was seed-corrected z-score -0.1773.
Result for UUCAUCGAUAAGUUCAUCC against SBNO1 was seed-corrected z-score -1.008.
Result for UUUGUUGUCAUGAUGUCAG against POSTN was seed-corrected z-score -0.1335.
Result for UACUCAAUCCUGUUGUUCC against CLSTN1 was seed-corrected z-score 0.2904.
Result for UAGCUUACAUGAUAGAAGG against IL1A was seed-corrected z-score -0.9503.
Result for UUUGUUCCCAGUAGAUUCC against AASS was seed-corrected z-score 1.67.
Result for UUAUUUAUAUUUGUUCUGC against LOC400756 was seed-corrected z-score -0.02143.
Result for UUACAGUCCCUCGAGAUGC against SCN11A was seed-corrected z-score -0.6693.
Result for UUUCGUUUGUCUUCUGCAG against MNS1 was seed-corrected z-score 0.103.
Result for UCUCACAACAAUUAAACUC against SEC14L6 was seed-corrected z-score -0.3913.
Result for AGAGGAACCAUGUGCCUGC against KCNJ10 was seed-corrected z-score -1.283.
Result for ACAGCGACGAACAUCACCC against PLLP was seed-corrected z-score 0.7536.
Result for UAGUCGCUGAUGAAUUUCC against SPC24 was seed-corrected z-score -0.9256.
Result for AUAGAAGUCGGUCUCACGC against ABT1 was seed-corrected z-score 0.9553.
Result for UAAGAUUUGUGCAUCAUCC against SERPINB7 was seed-corrected z-score 0.7443.
Result for AGCUAGAUAAGAAUCCAGG against VPS52 was seed-corrected z-score 0.6591.
Result for UUCGGUCUAAUCUUCACUG against SYNJ2 was seed-corrected z-score -0.7053.
Result for AAAGCUUUUGCAUCUGCGG against GSTA3 was seed-corrected z-score 1.49.
Result for UAGUUUCUCACAAUGGUUG against TMEM47 was seed-corrected z-score -0.3198.
Result for UUGUGCAUUACGGACCAGG against GREB1 was seed-corrected z-score 0.2233.
Result for UGUUUUAUCAGCCUCAAAC against EDA2R was seed-corrected z-score -0.02872.
Result for ACUGUUAACAGUGACCAUG against OR4F3 was seed-corrected z-score -0.2726.
Result for UUUCGGAGAAUAAAGAUCA against ELOVL1 was seed-corrected z-score -0.4263.
Result for UUCCCGGCUACUUCAAUGC against PARD6A was seed-corrected z-score 0.0871.
Result for UUUCAUCUAGGCUAUAAUC against FBXL21 was seed-corrected z-score -0.2716.
Result for UGAGAUCUCGGCAUAUACG against PCNA was seed-corrected z-score -0.2015.
Result for UAUGCUUGGAAUCAUUUGG against PTGES3P3 was seed-corrected z-score -0.7691.
Result for AUCAGAUUGAUCUUGAUCC against MINA was seed-corrected z-score 0.3694.
Result for UCAGCGAUUAGUUCUCAUC against RPL31 was seed-corrected z-score -1.081.
Result for UCUGUAUCAGGUACUACUC against LAMC2 was seed-corrected z-score -0.9144.
Result for AUUCAUAUCAAAUCGGUUA against ANKRA2 was seed-corrected z-score 0.5689.
Result for AGAAGGAUUUCCCAUGUGC against LOC645481 was seed-corrected z-score 0.1167.
Result for UUCAUCUUCGUACCUGACU against KRT75 was seed-corrected z-score 0.03346.
Result for AUACUGACAAGGUUUGGGC against FAM76A was seed-corrected z-score 1.371.
Result for UAAACCUUUGCAGUGAUAU against KLRC4 was seed-corrected z-score -0.293.
Result for UAGUGGAGCAUGAAGUGUC against LINC01559 was seed-corrected z-score 0.04194.
Result for UGACCUAAAAGAAGGCUGG against GPRASP1 was seed-corrected z-score 0.9761.
Result for UUUCGGAAUACUCUGUUGU against KIR3DP1 was seed-corrected z-score -0.05752.
Result for UGAUAUAAGAGGGUGUACC against GANAB was seed-corrected z-score 0.2966.
Result for UUCCUCUUGAGUUUUGGUU against C17orf64 was seed-corrected z-score -0.3244.

Repeated from the top, 5 entries:

- UGACUCAAGAGAAAGAUCC against DDA1 : seed-corrected z-score 1.214
- UUUCGUUUCUGUGAAAGAC against RAD9B : seed-corrected z-score 0.03926
- AGAUUCCACAUAGUAGUCG against KLHDC7A : seed-corrected z-score 1.336
- UCGAUGUAGCUGACUAUCC against SDR42E1 : seed-corrected z-score 0.5692
- UUCAUAAAAAGUGCUCAGC against SNX29 : seed-corrected z-score -1.019